In PubChem BioAssay AID1671190 (National Center for Advancing Translational Sciences (NCATS), 2021):
The campaign covered roughly 580,000 compounds. About 6,100 (1.1%) were called active. Roughly 15% stayed inconclusive and do not appear here. The call rests on the fitted dose curve; in most records, active means well fitted inhibition curve with a large enough effect; inconclusive means small, poorly fitted or top-dose-only effect, or another doubt; inactive means no such curve, though single readings can be large or run the other way. Only a part is listed here, and it is no random draw. Where no call is shown, the source filed none.

Chains of the proteins cited; added tags and fusions are not shown.
UniProt P18054, whole entry, looked up: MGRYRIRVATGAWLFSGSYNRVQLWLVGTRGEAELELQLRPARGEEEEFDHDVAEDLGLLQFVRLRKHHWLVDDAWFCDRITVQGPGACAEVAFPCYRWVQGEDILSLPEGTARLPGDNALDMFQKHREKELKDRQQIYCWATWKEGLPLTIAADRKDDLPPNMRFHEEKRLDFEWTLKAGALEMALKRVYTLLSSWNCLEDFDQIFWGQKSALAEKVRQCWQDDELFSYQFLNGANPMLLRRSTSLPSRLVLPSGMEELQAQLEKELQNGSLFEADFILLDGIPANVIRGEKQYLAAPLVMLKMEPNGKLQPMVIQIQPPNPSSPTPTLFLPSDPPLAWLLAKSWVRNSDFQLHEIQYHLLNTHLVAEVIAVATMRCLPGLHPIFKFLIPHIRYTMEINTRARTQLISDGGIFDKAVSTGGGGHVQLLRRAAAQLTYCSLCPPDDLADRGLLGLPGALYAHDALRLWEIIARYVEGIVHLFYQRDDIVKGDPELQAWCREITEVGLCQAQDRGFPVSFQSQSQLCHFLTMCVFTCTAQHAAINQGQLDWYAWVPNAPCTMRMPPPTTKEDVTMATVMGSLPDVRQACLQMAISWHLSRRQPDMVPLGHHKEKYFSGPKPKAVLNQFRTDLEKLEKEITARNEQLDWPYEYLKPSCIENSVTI

The compounds below were run against Polyunsaturated fatty acid lipoxygenase ALOX12 (Homo sapiens) (UniProt P18054) (assay: Primary qHTS assay for inhibitors of human arachidonate 12S-lipoxygenase (ALOX12): Round 2). Conditions: purified 12hLO, xylenol orange hydroperoxide absorbance; activity change, negative = inhibition: at 0.00344 µM (top of the series) unless noted.
Summary of the method: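 Purified human 12hLO at 150 nM in 25 mM Hepes, 0.01% Triton X-100, pH 7.0, preincubated 15 min at room temperature with compound. Reaction started with 40 uM arachidonic acid, 30 min at room temperature. Hydroperoxide measured by Fe-xylenol orange, 573/405 nm absorbance ratio.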
On the % scale 0 is the no-effect control and ±100 the full control effect; potency means the concentration at half of the fitted maximal effect.

Structure (SMILES)	Potency	activity change, negative = inhibition
Cc1ccc(S(=O)(=O)NC[C@H]2O[C@@H](CO)[C@@H](O)[C@H]2N2CCN(c3cccc(C(F)(F)F)c3)CC2)cc1	active: 15.8 µM	
CCCCCCCCCCCCOS(=O)(=O)O		-12.6%
CN1CCC(=C2c3ccccc3CC(=O)c3sccc32)CC1		-42.7%
CC(C)(Sc1cc(C(C)(C)C)c(O)c(C(C)(C)C)c1)Sc1cc(C(C)(C)C)c(O)c(C(C)(C)C)c1		-16.1%
CC1CCN(C(=S)NC(=O)c2ccc(C(C)(C)C)cc2)CC1	active: 31.6 µM	
CCCCCCC(=O)N(O)C1CC(=O)N(c2ccc(Cl)cc2)C1=O (centres undefined)	active: 1.26 µM	
Cc1ccc(Nc2nc(NCC3CC3)nc3ccsc23)c(C)c1	active: 39.8 µM	
CC1(C)CC(=O)C2=C(C1)Nc1ccccc1NC2c1cccc(F)c1 (centres undefined)	active: 11.2 µM	
N#C/C(=C/c1ccc(O)c(O)c1)C(=O)NCc1ccc(Cl)cc1	active: 25.1 µM	
CS(=O)(=O)CCNCc1ccc(-c2ccc3ncnc(Nc4ccc(OCc5cccc(F)c5)c(Cl)c4)c3c2)o1		27.8%
Cc1onc(-c2c(Cl)cccc2Cl)c1C(=O)Cl		10.3%
CCCCCC1(C)NC(=S)N(c2ccccc2)N1 (centres undefined)	active: 0.794 µM	
CC(=O)NO		16.2%
C/C=C/C=N/NC(=O)c1ccncc1		-16.4%
Cc1cc2c(c(=O)n1CCN(C)C)C(c1ccc(Cl)cc1Cl)C(C#N)=C(N)O2 (centres undefined)	active: 56.2 µM	
O=C(CN1C(=O)c2ccccc2S1(=O)=O)NCCSCc1c(F)cccc1Cl	active: 8.91 µM	
Cn1c(=O)c2c(ncn2CC(=O)O)n(C)c1=O		8.03%
CCCCCCCCCCC[C@@H](C[C@@H]1OC(=O)[C@H]1CCCCCC)OC(=O)[C@H](CC(C)C)NC=O		-11.1%
CSc1ccc(C(=O)c2[nH]c(=O)[nH]c2C)cc1		-13.9%
COc1ccc2[nH]c3c(=O)n(CCCCC(=O)NCCN4CCCC4)c(=S)[nH]c3c2c1	active: 14.1 µM	
CCCCCCCCCCCCCCCC(=O)NCCO		4.5%
CN1CCN(C2=Nc3cc(Cl)ccc3Nc3ccccc32)CC1		-4.55%
CN(C)CCN1CCN(c2cccc(Cl)c2)C1=O		-3.25%
CCc1nnc(NS(=O)(=O)c2ccc(N)cc2)s1		30.8%
C/C(=N\NC(=O)c1cc2c(s1)CCC(C)C2)c1cccnc1 (centres undefined)	active: 5.01 µM	
Cc1ccc(-c2ncc(Cl)cc2-c2ccc(S(C)(=O)=O)cc2)cn1		20.2%

Individual results from the entries so far.
Potency with N#C/C(=C/c1ccc(O)c(O)c1)C(=O)NCc1ccc(Cl)cc1 is entered as active: 25.1 µM
Potency with CCCCCC1(C)NC(=S)N(c2ccccc2)N1 (centres undefined) is entered as active: 0.794 µM
Potency with Cc1cc2c(c(=O)n1CCN(C)C)C(c1ccc(Cl)cc1Cl)C(C#N)=C(N)O2 (centres undefined) is entered as active: 56.2 µM

Continued:

Structure (SMILES)	Potency	activity change, negative = inhibition
NC12CC3CC(CC(C3)C1)C2		-13.7%
O=C(CN1C(=O)NC(c2ccc(Cl)cc2)C2=C1COC2=O)Nc1ccc(Cl)cc1F (centres undefined)	active: 8.91 µM	
CCCN(CCc1cccs1)[C@H]1CCc2c(O)cccc2C1		23.1%
C[C@@H](c1ncncc1F)C(O)(Cn1cncn1)c1ccc(F)cc1F (some centres undefined)		11.3%
CN1CC(=O)NC1=N		-10.9%
Cc1c(C)c2c(c(C)c1OC(=O)CCC(=O)OCCO)CC[C@@](C)(CCC[C@H](C)CCC[C@H](C)CCCC(C)C)O2		-75.5%
O=C1Cc2cc(CCN3CCN(c4nsc5ccccc45)CC3)c(Cl)cc2N1		5.27%
COc1cc(S(N)(=O)=O)cc(C(=O)O)c1OC		-31.7%
CCN[C@H]1C[C@H](C)S(=O)(=O)c2sc(S(N)(=O)=O)cc21		-16.6%
Cc1ccc(-c2ccccc2C#N)cc1		16.5%
O=C(O)Cc1cccc(-c2cc(CCCCCCc3ccc(O[C@H]4O[C@H](CO)[C@@H](O)[C@H](O)[C@@H]4O)c(-c4cccc(CC(=O)O)c4)c3)ccc2O[C@H]2O[C@H](CO)[C@@H](O)[C@H](O)[C@@H]2O)c1		-15.3% [at 37.5 pM]
Oc1ccc(Nc2ccc3ccccc3c2)cc1	active: 44.7 µM	
CCOC(=O)C(C)(C)Oc1ccc(Cl)cc1		50.5%
O=C1CCCc2c(O)cccc21		3.02%
CO[C@@]1(NC(=O)CSCC#N)C(=O)N2C(C(=O)O)=C(CSc3nnnn3C)CS[C@@H]21		17.1%
CCCCOCCOC(=O)c1cccnc1		2.98%
C[C@]12CC[C@@H]3c4ccc(O)cc4CC[C@H]3[C@@H]1CC[C@@H]2OC(=O)CCC1CCCC1		-5.12%
CCC(Cc1c(I)cc(I)c(N)c1I)C(=O)O (centres undefined)		0.658%
CN(C)c1ccc(O)c2c1C[C@H]1C[C@H]3[C@H](N(C)C)C(=O)C(C(N)=O)=C(O)[C@@]3(O)C(=O)C1=C2O		-21.9%
CCOC(=O)c1cccnc1		14.5%
Brc1c(NC2=NCCN2)ccc2nccnc12		16.7%
Cc1ccc2c(Cl)cc(Cl)c(O)c2n1		20.4%
CC[N+](CC)(CC)CCCOC(=O)C1(c2ccccc2)CCCC1	active: 20 µM	
O=C(OCc1ccccc1)c1ccccc1		0.407%
CCOc1ccc(-n2c(C)cc(/C=C3/C(=N)N4C(=NC3=O)SN=C4S(C)(=O)=O)c2C)cc1	active: 35.5 µM	

Structure (SMILES)	Potency	activity change, negative = inhibition
CN1CCN(CCC(=O)N2c3ccccc3Sc3ccc(C(F)(F)F)cc32)CC1		8.58%
CC1(C)S[C@@H]2[C@H](NC(=O)C(c3ccccc3)S(=O)(=O)O)C(=O)N2[C@H]1C(=O)O (some centres undefined)		-13.4%
CC(=NNC(=S)N1CCCCC1)c1ccccn1	active: 44.7 µM	
Cc1cccc(CSc2nnc(CCNC(=O)OC(C)(C)C)o2)c1	active: 7.94 µM	
CN(C)CC[C@@H](c1ccc(Cl)cc1)c1ccccn1		-11.8%
CC(C)C(C#CCN1CCCCC1)(c1ccccc1)c1ccccc1	active: 20 µM	
CCc1ccc(-c2c(C)sc(N)c2C#N)cc1	active: 28.2 µM	
Cn1c([N+](=O)[O-])cnc1COC(N)=O		-1.95%
O=C(CSc1nc2cc([N+](=O)[O-])ccc2o1)Nc1ccc(Cl)cc1	active: 22.4 µM	
COc1ccc(C(=O)NCc2ccc(OCCN(C)C)cc2)cc1OC		23.7%
CCCCCCCCCCCCCCCC[n+]1ccccc1		18.1%
CC(C)(C)c1ccc(-c2cc(C[C@H]3CNCC[C@H]3CC(=O)NCc3cccs3)no2)cc1	active: 39.8 µM	
Cc1ccc(-n2sc3ccccc3c2=O)cc1	active: 1.12 µM	
O=C(O)c1cn(C2CC2)c2cc(Cl)c(F)cc2c1=O		-7.72%
O=S(c1cc(Cl)cc(Cl)c1O)c1cc(Cl)cc(Cl)c1O		-22.7%
CCc1cccc2c3c([nH]c12)C(CC)(CC(=O)O)OCC3 (centres undefined)		4.73%
COc1ccc(C)cc1Nc1n[n+](-c2ccccc2)c(-c2ccc(C(=O)O)cc2)s1	active: 17.8 µM	
CC(C)(C)c1ccc(C(=O)CCCCl)cc1		-20.5%
O=C(OCCN1CCOCC1)c1cccnc1Nc1cccc(C(F)(F)F)c1		-14.4%
OCCOCCN1CCN(C(c2ccccc2)c2ccc(Cl)cc2)CC1 (centres undefined)		23.7%
Cc1cc(CCCOc2c(C)cc(-c3noc(C(F)(F)F)n3)cc2C)on1		-4.08%
O=C(Nc1cnc(N2CCC(N3CCCCC3)CC2)c(C(=O)O)c1)c1ccc(Br)cc1	active: 39.8 µM	
CC(C)COC(=O)c1ccc(N)cc1		0.0104%
CC[C@H](NC(C)C)[C@H](O)c1ccc(O)c2[nH]c(=O)ccc12		-28%
O=C(CSc1nc2ccccc2s1)Nc1ccc(F)c(F)c1	active: 35.5 µM	
Cc1cnc(NS(=O)(=O)c2ccc(N)cc2)nc1		22.5%

An excerpt of these results, comma-delimited.
Structure (SMILES),Potency,"activity change, negative = inhibition"
C/C=C/C=N/NC(=O)c1ccncc1,,-16.4%
Cc1cc2c(c(=O)n1CCN(C)C)C(c1ccc(Cl)cc1Cl)C(C#N)=C(N)O2 (centres undefined),active: 56.2 µM,
O=C(CN1C(=O)c2ccccc2S1(=O)=O)NCCSCc1c(F)cccc1Cl,active: 8.91 µM,
Cn1c(=O)c2c(ncn2CC(=O)O)n(C)c1=O,,8.03%

The list continues:

Structure (SMILES)	Potency	activity change, negative = inhibition
O=C(c1ccc(C(F)(F)F)cc1)N1CCC(c2nn(-c3ccc(F)cc3)c(=O)[nH]2)CC1	active: 22.4 µM	
COc1cc(C(=O)NC2CCCNC2)cc(OC)c1OC (centres undefined)		22.6%
CCCC(=O)O[C@]1(C(=O)CC)CC[C@H]2[C@@H]3CCC4=CC(=O)CC[C@]4(C)[C@H]3[C@@H](O)C[C@@]21C		-33.6%
CC(=O)OCC1=C(C(=O)O)N2C(=O)[C@@H](NC(=O)CSc3ccncc3)[C@H]2SC1		7.43%
O=C1OC(c2ccccc2)(c2cc(Br)ccc2O)c2ccccc21 (centres undefined)	active: 44.7 µM	
CCCCCCCC/C=C\CCCCCCCC(=O)NCCc1ccc(O)c(O)c1	active: 5.62 µM	
O=C(O)CCC(=O)Nc1ccc(S(=O)(=O)Nc2nccs2)cc1		-33.7%
CC1=C[C@@H](CNCc2ccccc2O)[C@H](C(C)C)C[C@H]1Cc1nc2c(C)cccc2[nH]1	active: 63.1 µM	
COc1ccc(C(=O)N2CCN(CC(=O)N3CCOCC3)CC2)cc1		27.5%
O=C1Cc2cc(Cl)ccc2N1		31.7%
CCOC(=O)C1=C[C@]2(CC)CCCN3CCc4c(n1c1ccccc41)[C@@H]32		59.6%
Cc1ccc(OC2(C(=O)N3CCCC3c3nccs3)CCNCC2)cc1 (centres undefined)	active: 17.8 µM	
CC(C)CCCC(C)CCCC(C)CCCCC(C)CCCC(C)CCCC(C)C (centres undefined)		10.8%
O=c1[nH]c2ccc(Br)cc2c(-c2ccccc2)c1CN1CCCCC1	active: 22.4 µM	
CCc1cccc2c(CCO)c[nH]c12		-17.5%
COc1ccc(Cc2n[nH]c(=S)n2CC(C)C)cc1	active: 14.1 µM	
Cc1ccc(S(=O)(=O)/N=C2/NC(=O)/C(=C/c3ccc(Br)o3)S2)cc1	active: 1 µM	
COc1ccc(CNC(=S)NCc2ccc(Cl)cc2)cc1OC	active: 50.1 µM	
c1ccc2[nH]c(-c3cscn3)nc2c1		12.1%
CCCC(=O)Nc1ccc2nc(N3CCN(C(=O)OCC)CC3)cc(C(=O)O)c2c1	active: 7.94 µM	
CC(C)(C)C(=O)OCC1CCC[N+]2(C)CCCCC12 (centres undefined)	active: 28.2 µM	
CC(C)C[C@H]1CNC(=S)N1C[C@H]1CCCN1C[C@H](Cc1ccccc1)N1C[C@H](Cc2ccc(O)cc2)N(CC2CCCCCC2)C1=S	active: 39.8 µM	
CNCCC(Oc1ccc(C(F)(F)F)cc1)c1ccccc1 (centres undefined)		22.3%
C[C@@H](CN1CC(=O)NC(=O)C1)N1CC(=O)NC(=O)C1		-12.1%
CC(=O)Nc1ccc(CC(=O)O)cc1		-20.5%
CC(=O)OCC(=O)[C@@]12N=C(C)O[C@@H]1C[C@H]1[C@@H]3CCC4=CC(=O)C=C[C@]4(C)[C@H]3[C@@H](O)C[C@@]12C		20.9%
